PubChem BioAssay AID1259254 – NCATS | 2017

- Aim: 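Finding genes that stop cells copying their DNA twice in one cycle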 (primary screen)
- System: human HCT116 colorectal cancer cells
- Reagent: single siRNA against human genes
- Time to read-out: 3 days
- Detection: 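Nuclei stained with Hoechst and imaged; cell-cycle phase assigned by DNA content; G2 share scaled per plate, non-targeting siRNA 0%, GMNN siRNA 100%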
- Reading the numbers: G2 robust z-score: higher = more G2 cells, more excess DNA replication
- Call rule: 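Active siRNAs have a G2 robust z of 5 or more median absolute deviations over the median, which in these data means about 38% or higher of GMNN control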
The deposit covers about 59,000 reagents; this is a random part of them. In the full data, about 1,550 (2.6%) were called active. 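G2 share is only a proxy for re-replication; each gene was hit by three separate siRNAs, and active genes were retested.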 The numbers tell different reagents against one gene apart. Further read-outs or replicates are left out here. Reagent sequences are not shown. Not given: the amount of reagent.

Which result is listed for FANK1 (fibronectin type III and ankyrin repeat domains 1) #1?
G2 robust z-score: 0.708; activity call: inactive

With FANK1 (fibronectin type III and ankyrin repeat domains 1) #2, how do the results read?
G2 robust z-score: -0.435; activity call: inactive

What is on record for FANK1 (fibronectin type III and ankyrin repeat domains 1) #3?
G2 robust z-score: 0.276; activity call: inactive

How did the screen score LOC340089 (POM121 membrane glycoprotein (rat) pseudogene) #1?
G2 robust z-score: 8.84; activity call: active

For LOC340089 (POM121 membrane glycoprotein (rat) pseudogene) #2, how do the results read?
G2 robust z-score: 0.419; activity call: inactive

What is on record for LOC340089 (POM121 membrane glycoprotein (rat) pseudogene) #3?
G2 robust z-score: -0.559; activity call: inactive

What did the screen give for ITSN2 (intersectin 2) #1?
G2 robust z-score: 0.298; activity call: inactive

Which result is listed for ITSN2 (intersectin 2) #2?
G2 robust z-score: -0.466; activity call: inactive

What did the screen give for ITSN2 (intersectin 2) #3?
G2 robust z-score: 2.27; activity call: inactive

With SNX19 (sorting nexin 19) #1, what does the deposit list?
G2 robust z-score: -0.364; activity call: inactive

For SNX19 (sorting nexin 19) #2, what does the deposit list?
G2 robust z-score: -0.707; activity call: inactive

For SNX19 (sorting nexin 19) #3, how do the results read?
G2 robust z-score: -0.127; activity call: inactive

With TGOLN2 (trans-golgi network protein 2) #1, what does the deposit list?
G2 robust z-score: 1.88; activity call: inactive

How did the screen score TGOLN2 (trans-golgi network protein 2) #2?
G2 robust z-score: 3.16; activity call: inactive

With TGOLN2 (trans-golgi network protein 2) #3, what does the deposit list?
G2 robust z-score: 0.426; activity call: inactive

For NECAB3 (N-terminal EF-hand calcium binding protein 3) #1, what does the deposit list?
G2 robust z-score: -0.0453; activity call: inactive

With NECAB3 (N-terminal EF-hand calcium binding protein 3) #2, what does the deposit list?
G2 robust z-score: 1.03; activity call: inactive

For NECAB3 (N-terminal EF-hand calcium binding protein 3) #3, what was measured?
G2 robust z-score: -1.13; activity call: inactive

Called active (from the list above):
LOC340089 (POM121 membrane glycoprotein (rat) pseudogene) #1 — G2 robust z-score = 8.84; activity call = active
